# Data as given in PubChem BioAssay AID1508597 (Cure First, 2020)
# Test: 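Survival screen with siRNA in ovarian cancer cells derived from patients, with or without rucaparib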 (primary screen)
# Cells: human ovarian carcinoma lines grown from tumours: OCI-P5x (papillary serous) and OCI-C5x (clear cell)
# Knock-down reagent: siRNA pool against human genes, 1.25 pmol siRNA per well
# Timing: 72 h or 96 h, depending on the cell culture
# Conditions: rucaparib 20 µM (about IC30) or vehicle, present until read-out
# Rucaparib or vehicle: Rucaparib
# Cell line: OCI-C5x (clear cell)
# Read-out: 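Luminescent ATP-based viability assay read 72 or 96 h after transfection, depending on culture, given as normalised percent viability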
# Reading the numbers: viability, normalised: higher = more viable cells remaining
# Rule for the call: 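a well counts as a hit if its normalised viability is under 80 percent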
# Meaning of the calls: active = viability under 80%; inactive = viability 80% or more
# This is a random part of the about 2,100 reagents, under one of the conditions tested. 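Calls flag viability under 80% in either arm, not effects specific to rucaparib; the reference for percent is not stated.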 Entries without a mark were called inactive. Reagents against one gene are numbered here. A reagent listed more than once was tested more than once; the source does not tell the runs apart. No sequences are given here. The record does not give: the 100% reference.
gene knocked down,pool no.,technical replicate,"viability, normalised (%)"
PCGF2 (polycomb group ring finger 2),1,1,51.8 (active)
PCGF2 (polycomb group ring finger 2),1,2,40.1 (active)
PCGF2 (polycomb group ring finger 2),1,3,36.4 (active)
"HCK (HCK proto-oncogene, Src family tyrosine kinase)",1,1,54.5 (active)
"HCK (HCK proto-oncogene, Src family tyrosine kinase)",1,1,46.3 (active)
"HCK (HCK proto-oncogene, Src family tyrosine kinase)",1,2,60.4 (active)
"HCK (HCK proto-oncogene, Src family tyrosine kinase)",1,2,50.2 (active)
"HCK (HCK proto-oncogene, Src family tyrosine kinase)",1,3,40 (active)
"HCK (HCK proto-oncogene, Src family tyrosine kinase)",1,3,55.8 (active)
NME9 (NME/NM23 family member 9),1,1,45.3 (active)
NME9 (NME/NM23 family member 9),1,2,44.6 (active)
NME9 (NME/NM23 family member 9),1,3,45.3 (active)
NME9 (NME/NM23 family member 9),2,1,61.1 (active)
NME9 (NME/NM23 family member 9),2,2,52.2 (active)
NME9 (NME/NM23 family member 9),2,3,62 (active)
GADD45G (growth arrest and DNA damage inducible gamma),1,1,47.9 (active)
GADD45G (growth arrest and DNA damage inducible gamma),1,2,47.3 (active)
GADD45G (growth arrest and DNA damage inducible gamma),1,3,40.8 (active)
ERBB4 (erb-b2 receptor tyrosine kinase 4),1,1,48.3 (active)
ERBB4 (erb-b2 receptor tyrosine kinase 4),1,2,43.1 (active)
ERBB4 (erb-b2 receptor tyrosine kinase 4),1,3,40.8 (active)
PHF23 (PHD finger protein 23),1,1,49.8 (active)
PHF23 (PHD finger protein 23),1,2,46.6 (active)
PHF23 (PHD finger protein 23),1,3,39.3 (active)
CHKA (choline kinase alpha),1,1,39.3 (active)
CHKA (choline kinase alpha),1,2,48.7 (active)
CHKA (choline kinase alpha),1,3,44.6 (active)
"SRC (SRC proto-oncogene, non-receptor tyrosine kinase)",1,1,44.8 (active)
"SRC (SRC proto-oncogene, non-receptor tyrosine kinase)",1,2,57 (active)
"SRC (SRC proto-oncogene, non-receptor tyrosine kinase)",1,3,59 (active)
EXT1 (exostosin glycosyltransferase 1),1,1,38.5 (active)
EXT1 (exostosin glycosyltransferase 1),1,2,59.3 (active)
EXT1 (exostosin glycosyltransferase 1),1,3,55 (active)
KMT5B (lysine methyltransferase 5B),1,1,75 (active)
KMT5B (lysine methyltransferase 5B),1,2,74.4 (active)
KMT5B (lysine methyltransferase 5B),1,3,66.8 (active)
"ERCC1 (ERCC excision repair 1, endonuclease non-catalytic subunit)",1,1,33.5 (active)
"ERCC1 (ERCC excision repair 1, endonuclease non-catalytic subunit)",1,1,57.9 (active)
"ERCC1 (ERCC excision repair 1, endonuclease non-catalytic subunit)",1,2,67.9 (active)
"ERCC1 (ERCC excision repair 1, endonuclease non-catalytic subunit)",1,2,39.6 (active)
"ERCC1 (ERCC excision repair 1, endonuclease non-catalytic subunit)",1,3,67.1 (active)
"ERCC1 (ERCC excision repair 1, endonuclease non-catalytic subunit)",1,3,39.8 (active)
TNK1 (tyrosine kinase non receptor 1),1,1,48.3 (active)
TNK1 (tyrosine kinase non receptor 1),1,2,59.2 (active)
TNK1 (tyrosine kinase non receptor 1),1,3,37.9 (active)
CLU (clusterin),1,1,56.5 (active)
CLU (clusterin),1,2,52.9 (active)
CLU (clusterin),1,3,39.6 (active)
PWWP2B (PWWP domain containing 2B),1,1,37.6 (active)
PWWP2B (PWWP domain containing 2B),1,2,41 (active)
PWWP2B (PWWP domain containing 2B),1,3,47.7 (active)
IGF2R (insulin like growth factor 2 receptor),1,1,44.2 (active)
IGF2R (insulin like growth factor 2 receptor),1,2,44.3 (active)
IGF2R (insulin like growth factor 2 receptor),1,3,51.3 (active)
ZMYND11 (zinc finger MYND-type containing 11),1,1,61.1 (active)
ZMYND11 (zinc finger MYND-type containing 11),1,2,67.5 (active)
ZMYND11 (zinc finger MYND-type containing 11),1,3,48.3 (active)
SNRNP200 (small nuclear ribonucleoprotein U5 subunit 200),1,1,43.7 (active)
SNRNP200 (small nuclear ribonucleoprotein U5 subunit 200),1,1,34.4 (active)
SNRNP200 (small nuclear ribonucleoprotein U5 subunit 200),1,2,49.7 (active)
SNRNP200 (small nuclear ribonucleoprotein U5 subunit 200),1,2,41.3 (active)
SNRNP200 (small nuclear ribonucleoprotein U5 subunit 200),1,3,45.8 (active)
SNRNP200 (small nuclear ribonucleoprotein U5 subunit 200),1,3,34.4 (active)
CDK17 (cyclin dependent kinase 17),1,1,48.6 (active)
CDK17 (cyclin dependent kinase 17),1,2,54.1 (active)
CDK17 (cyclin dependent kinase 17),1,3,50.1 (active)
MED17 (mediator complex subunit 17),1,1,19.3 (active)
MED17 (mediator complex subunit 17),1,2,23 (active)
MED17 (mediator complex subunit 17),1,3,17.6 (active)
SIN3A (SIN3 transcription regulator family member A),1,1,25.1 (active)
SIN3A (SIN3 transcription regulator family member A),1,2,23 (active)
SIN3A (SIN3 transcription regulator family member A),1,3,18.2 (active)
FLT4 (fms related receptor tyrosine kinase 4),1,1,74.3 (active)
FLT4 (fms related receptor tyrosine kinase 4),1,1,39.8 (active)
FLT4 (fms related receptor tyrosine kinase 4),1,2,61.9 (active)
FLT4 (fms related receptor tyrosine kinase 4),1,2,38.9 (active)
FLT4 (fms related receptor tyrosine kinase 4),1,3,88.3
FLT4 (fms related receptor tyrosine kinase 4),1,3,46.3 (active)

A run of entries from the list above:
gene knocked down,pool no.,technical replicate,"viability, normalised (%)"
CLU (clusterin),1,2,52.9 (active)
CLU (clusterin),1,3,39.6 (active)
PWWP2B (PWWP domain containing 2B),1,1,37.6 (active)
PWWP2B (PWWP domain containing 2B),1,2,41 (active)
PWWP2B (PWWP domain containing 2B),1,3,47.7 (active)
IGF2R (insulin like growth factor 2 receptor),1,1,44.2 (active)
IGF2R (insulin like growth factor 2 receptor),1,2,44.3 (active)
IGF2R (insulin like growth factor 2 receptor),1,3,51.3 (active)
ZMYND11 (zinc finger MYND-type containing 11),1,1,61.1 (active)
